The full ranking holds about 33,000 sequences; the median of “E-score (-0.5 to 0.5)” is about -0.016, and the highest 2% start at about 0.3. The list shows a part of the results.
What follows are sequences tested against T1, Yer184c (UniProt P39961) (assay: PBM E-score (8-mer binding enrichment) (E-score (-0.5 to 0.5)); higher = stronger / more preferred TF binding). Settings: protein concentration: 100 nM; construct: GST-full length.
T1 sequence: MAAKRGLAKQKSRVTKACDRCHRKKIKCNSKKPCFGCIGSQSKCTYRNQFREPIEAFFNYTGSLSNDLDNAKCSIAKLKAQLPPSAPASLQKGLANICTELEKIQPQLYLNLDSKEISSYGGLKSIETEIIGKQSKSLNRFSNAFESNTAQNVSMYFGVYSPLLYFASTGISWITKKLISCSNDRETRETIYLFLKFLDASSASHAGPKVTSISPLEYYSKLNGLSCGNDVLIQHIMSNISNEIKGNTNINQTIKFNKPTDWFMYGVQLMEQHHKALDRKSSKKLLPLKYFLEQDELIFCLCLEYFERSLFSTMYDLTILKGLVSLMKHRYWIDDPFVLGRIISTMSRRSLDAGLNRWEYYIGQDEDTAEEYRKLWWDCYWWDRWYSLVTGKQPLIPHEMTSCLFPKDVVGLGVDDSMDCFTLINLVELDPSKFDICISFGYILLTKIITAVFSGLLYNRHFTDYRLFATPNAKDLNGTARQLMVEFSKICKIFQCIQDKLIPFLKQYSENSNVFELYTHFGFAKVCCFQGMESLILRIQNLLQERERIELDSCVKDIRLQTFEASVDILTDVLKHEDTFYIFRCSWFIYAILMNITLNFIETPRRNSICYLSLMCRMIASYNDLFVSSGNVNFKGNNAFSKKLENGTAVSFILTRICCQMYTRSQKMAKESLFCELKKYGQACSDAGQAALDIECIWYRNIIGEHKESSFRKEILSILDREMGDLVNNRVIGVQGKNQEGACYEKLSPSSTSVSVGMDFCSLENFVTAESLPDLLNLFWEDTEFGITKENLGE
Procedure: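 Universal 'all 10-mer' protein binding microarrays (Agilent AMADID 015681) probed with GST-tagged S. cerevisiae TFs (full-length or DBD) made by in vitro transcription/translation (PURExpress), about 100-200 nM. Bound TF was detected with fluorescent anti-GST. Each ungapped 8-mer (which stands for itself and its reverse complement) is scored by the PBM enrichment score (E-score), a modified Wilcoxon-Mann-Whitney statistic from -0.5 to +0.5, computed with the Universal PBM Analysis Suite. Scale: above 0.35 generally sequence-specific binding.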

| Sequence | PBM E-score |
| --- | --- |
| AGGTCGCA | -0.0629 |
| GTTTCAAA | 0.153 |
| AGGAGGGA | -0.143 |
| GACACCAC | -0.182 |
| AGATAAAT | 0.0452 |
| ACGGCAGC | 0.161 |
| CGTAGTGA | -0.00872 |
| AATGTAGC | -0.164 |
| ACATACTC | 0.0395 |
| ACAGAGAT | 0.0773 |
| CACGCACG | 0.0153 |
| ATTGGGTG | 0.0479 |
| ATTTTGCC | 0.0111 |
| CATCGTGG | -0.245 |
| TGCAGTAA | -0.0942 |
| ACCGTGGG | -0.135 |
| ACTAGGCA | -0.16 |
| GTCCGGAA | 0.429 |
| ACGGCCTG | 0.0944 |
| GGAACGCC | 0.0678 |
| CCACCTGA | -0.069 |
| AACACCGC | -0.13 |
| AAAATCAA | 0.176 |
| TGTCTTAA | 0.0193 |
| ATCACTAC | -0.00696 |

| Sequence | PBM E-score |
| --- | --- |
| AGTTCGGA | 0.264 |
| ATTTGCAA | 0.221 |
| CAGGCGGA | 0.267 |
| GTCACTCA | 0.128 |
| TAAAGAGA | -0.0427 |
| GCAATCTA | -0.00051 |
| ACTGCGTG | -0.268 |
| GCAGCTCA | -0.108 |
| CAGCGATC | 0.00289 |
| TGATAACA | 0.171 |
| CGCCTCAG | -0.0607 |
| ATTTGATC | 0.0937 |
| AATACCCC | -0.218 |
| CCTAGAAC | 0.0255 |
| CCTATCTA | -0.132 |
| ATGGAATA | 0.127 |
| AAAACCAG | -0.0215 |
| ATCCGTCG | 0.168 |
| TAATCCCA | -0.216 |
| GATTGGAC | -0.14 |
| GAACTGAC | 0.0493 |
| CTGGTCTC | -0.24 |
| GCAACCAC | 0.0637 |
| ACCCATTG | -0.0496 |
| ACGTTGCC | -0.14 |

A second format for some results above.
Sequence | PBM E-score
CAGGCGGA | 0.267
ATGGAATA | 0.127

Remaining list, next part.

| Sequence | PBM E-score |
| --- | --- |
| CCACTAAA | -0.0267 |
| ACAACGCA | 0.0781 |
| AGTTGGAG | -0.106 |
| AATATCTC | 0.106 |
| ATATTGCG | -0.0525 |
| ACAGAGCA | 0.0955 |
| ACTCATTA | -0.0725 |
| GTCCTCGA | -0.0311 |
| AGCAACAA | 0.227 |
| ACGGTGAT | -0.146 |
| CAACGCGC | 0.154 |
| AAACTAGC | -0.093 |
| GGATAAAC | 0.224 |
| AAAGCACA | 0.0779 |
| AATACATA | 0.0439 |
| AACGGGCG | -0.157 |
| GGTTACAA | 0.23 |
| AACCTGCA | -0.0155 |
| AAGAAATC | -0.0468 |
| CCCCGTGA | -0.178 |
| CGCAGGTC | -0.21 |
| GAGAATAA | 0.168 |
| GCTCATGA | -0.0987 |
| GAGGGGTA | -0.195 |
| AGAGCGAA | -0.0274 |

| Sequence | PBM E-score |
| --- | --- |
| CATTAGAC | -0.0664 |
| TATAAATA | 0.266 |
| GGGTTTAC | -0.0429 |
| ATACCTAA | 0.054 |
| ATACGCCG | 0.204 |
| AGCGAGTA | 0.189 |
| CTGAGACC | -0.14 |
| ACTGGCAC | -0.14 |
| GATCTCAA | 0.125 |
| AGTGCCAA | -0.123 |
| GGATGGCC | -0.0362 |
| TCATCGCA | -0.0385 |
| AGAGGCAG | -0.217 |
| AGCACGTG | 0.144 |
| AGGGAGTG | -0.291 |
| AATAGTGA | 0.126 |
| ACTAGCCC | -0.0746 |
| CCTCATAG | -0.187 |
| AACTGTAT | 0.167 |
| CCAGGAAG | -0.164 |
| GCTAGTAC | -0.085 |
| AATGCGTC | -0.141 |
| CGGCTACC | 0.23 |
| CTGGCTCC | -0.183 |
| AGAGCCTC | -0.312 |

| Sequence | PBM E-score |
| --- | --- |
| ACGGGAAG | -0.024 |
| GTTCCTTA | 0.112 |
| CAGAGTAA | -0.0236 |
| CAGAGATA | -0.0588 |
| ACAGCCAT | -0.184 |
| AGTTCGAT | -0.0396 |
| AATGGGGG | -0.347 |
| AAGAAAGC | -0.0333 |
| AACTCCGT | 0.222 |
| AGGCAACT | 0.0699 |
| TATCCTCA | -0.0278 |
| AAGGGACC | -0.0161 |
| AACGAAAT | 0.248 |
| ACAACACA | 0.111 |
| CAACCGAA | 0.258 |
| ACGGTAAG | -0.00751 |
| GCGGGTAC | -0.0776 |
| AGAATGGC | 0.0242 |
| CAGGGCAC | -0.172 |
| GCAGTACC | 0.0091 |
| ATCTGTAG | -0.0935 |
| TACACGGA | 0.302 |
| GCCACAGC | -0.186 |
| AACTCAAA | 0.0718 |
| AAGCGACG | -0.0516 |

| Sequence | PBM E-score |
| --- | --- |
| CGTAAGCC | 0.0257 |
| GTAGGTGA | -0.135 |
| TCAGATGA | 0.0923 |
| AGTAATAG | -0.00505 |
| CGATGGCC | -0.00914 |
| CTCGACTA | -0.1 |
| AGGGGCCA | -0.217 |
| CCGGTAAG | 0.369 |
| TAACGCGA | -0.0896 |
| GCGCTCTA | -0.0288 |
| GATCGCGA | 0.186 |
| CTGTACAA | 0.145 |
| TACGGAGA | 0.153 |
| TGACGAAA | 0.102 |
| TATCTAAA | 0.0877 |
| AGATTGTA | -0.0525 |
| AAAAAGCC | 0.289 |
| GGTTTCGA | 0.00891 |
| ATGGGGAG | -0.226 |
| CGACATAG | -0.172 |
| TGGCATAA | 0.139 |
| CGTACGCA | -0.103 |
| TCCTGCAA | -0.0596 |
| GGGGCGAC | -0.173 |
| TGACTGCA | -0.283 |

A stretch from further up, as a working copy:

| Sequence | PBM E-score |
| --- | --- |
| TCCTGCAA | -0.0596 |
| GGGGCGAC | -0.173 |

Following part:

| Sequence | PBM E-score |
| --- | --- |
| CTGGAGAC | -0.098 |
| AAAGGACG | 0.0579 |
| AAAAATTG | 0.107 |
| CGCCATAC | 0.0267 |
| AGTTTTAT | 0.21 |
| CCGAAGTA | 0.25 |
| TAGAAGAA | 0.0399 |
| AATCAACT | 0.0941 |
| CAAATAAC | 0.135 |
| AACCATTC | -0.0758 |
| CGTTCTTA | 0.0844 |
| CAATGCCA | -0.117 |
| ACATCGCC | -0.0957 |
| AAAACGTC | 0.0634 |
| CACATCGC | -0.157 |
| AGGCCCGC | 0.0405 |
| AAAGCCAC | -0.00701 |
| TATGTACA | -0.0329 |
| GTCAAAAC | 0.19 |
| GATAGTAA | 0.0357 |
| CCCACTAG | -0.364 |
| GTGAGCTA | -0.15 |
| TGCATCAA | 0.0626 |
| GGCGCATA | -0.0303 |
| ATATAAAG | 0.0639 |

Some of the entries so far, as comma-separated lines:
Sequence,PBM E-score
CAATGCCA,-0.117
AAAACGTC,0.0634
CACATCGC,-0.157
TGCATCAA,0.0626
ATATAAAG,0.0639

(continued)

| Sequence | PBM E-score |
| --- | --- |
| CAAGACCG | 0.0414 |
| ACTGCCTC | -0.229 |
| CATGAGAC | -0.0666 |
| CTCTGAAG | -0.164 |
| ATCATCCA | -0.131 |
| TGGCCTAA | -0.147 |
| AACCGTCT | -0.0225 |
| CTATTAAG | -0.0949 |
| AGCCGCCA | -0.203 |
| TCACGGAA | 0.341 |
| AAGCATCC | -0.118 |
| CGGGCTCA | -0.053 |
| TATCAATA | 0.178 |
| AACCACAC | -0.0444 |
| ATTGGAAA | 0.156 |
| AGTAAAAT | 0.161 |
| GCCTAACA | 0.0992 |
| GTACCTTA | 0.0404 |
| CAATGCAA | 0.0267 |
| CGGAGACC | 0.0297 |
| CTGACAGA | 0.0329 |
| CACTGGCG | -0.136 |
| GGGCCTAC | -0.197 |
| ATGTCCCG | 0.0328 |
| GCACCACC | -0.201 |

| Sequence | PBM E-score |
| --- | --- |
| CCTACAAA | 0.137 |
| ACTGTGCT | -0.0518 |
| ACCCGAGA | 0.195 |
| CGGTGAGA | 0.188 |
| AGACCCGG | 0.198 |
| CAATACAC | 0.135 |
| GACGACAA | 0.166 |
| AAACGCTA | -0.164 |
| GTGTTACA | 0.0194 |
| AGGCGATA | -0.12 |
| GCCGTAGC | 0.045 |
| CGTCAGAG | -0.162 |
| AAGTAAAA | 0.0973 |
| AATCCAAG | -0.0619 |
| TCCGGACA | 0.431 |
| TACCTATA | -0.0891 |
| GTTTAATA | 0.155 |
| ACTGACTA | -0.132 |
| AAGCCGAA | 0.389 |

Source: the supplement of paper PMC3334620
